Experimental data taken from patent US8258094 (dated 2012).

Experiment: general procedure: Fmoc solid-phase peptide synthesis; Rink Amide-MBHA resin (Novabiochem), substitution 0.64 mmol/g; HBTU/HOBT, DIEA in NMP; TFFH/HOAt/DMAP/DIEA for Aib1; PyAOP/HOAt/DMAP/DIEA for s
Details: whole synthesis; for final HPLC purity: scale of the general procedure 0.1 mmol

Substance | final HPLC purity | isolated mass (scale 0.1 mmol) | isolated yield (scale 0.1 mmol)
(Ac-Aib^1,Aib^2,10,Glu(NH-hexyl)^3,17)hGhrelin(1-28)-NH2 | 97.5% | 27.1 mg | 6.3%
(Ac-Gly^1,Aib^2,8,Glu(NH-hexyl)^3,17)hGhrelin(1-28)-NH2 | 98.0% | – | –
(Ac-Gly^1,Aib^2,10,Glu(NH-hexyl)^3,17)hGhrelin(1-28)-NH2 | 99.0% | – | –
(Ac-Gly^1,Aib^2,10,Glu(NH-hexyl)^3,Lys(biotinyl)^17)hGhrelin(1-28)-NH2 | 98.4% | – | –
(Ac-Gly^1,Aib^2,Glu(NH-hexyl)^3,17)hGhrelin(1-28)-NH2 | 99.0% | – | –
(Aib^1,2,10, Glu(NH-hexyl)^3,17)hGhrelin(1-28)-NH2 | 96.5% | – | –
(Aib^2,8,Glu(NH-hexyl)^3,17)hGhrelin(1-28)-NH2 | 99.9% | – | –
(Aib^2,8,Ser^3,Glu(NH-hexyl)^17)hGhrelin(1-28)-NH2 | 99.0% | – | –
(Aib^2,10,Glu(NH-hexyl)^3,17)hGhrelin(1-28)-NH2 | 100% | – | –
(Aib^2,Lys(myristyl)^17)hGhrelin(1-28)-NH2 | 99.2% | – | –
(Gly(myristyl)^1,Aib^2,Lys(myristyl)^17)hGhrelin(1-28)-NH2 | 98.6% | – | –
